Paper PMC8403985

Protein sequences, listed by entry. Tags and fused reporters are not part of them. Lines headed by an entry give the natural chain unless they say otherwise; changes in a name come on top.
UniProt Q13153: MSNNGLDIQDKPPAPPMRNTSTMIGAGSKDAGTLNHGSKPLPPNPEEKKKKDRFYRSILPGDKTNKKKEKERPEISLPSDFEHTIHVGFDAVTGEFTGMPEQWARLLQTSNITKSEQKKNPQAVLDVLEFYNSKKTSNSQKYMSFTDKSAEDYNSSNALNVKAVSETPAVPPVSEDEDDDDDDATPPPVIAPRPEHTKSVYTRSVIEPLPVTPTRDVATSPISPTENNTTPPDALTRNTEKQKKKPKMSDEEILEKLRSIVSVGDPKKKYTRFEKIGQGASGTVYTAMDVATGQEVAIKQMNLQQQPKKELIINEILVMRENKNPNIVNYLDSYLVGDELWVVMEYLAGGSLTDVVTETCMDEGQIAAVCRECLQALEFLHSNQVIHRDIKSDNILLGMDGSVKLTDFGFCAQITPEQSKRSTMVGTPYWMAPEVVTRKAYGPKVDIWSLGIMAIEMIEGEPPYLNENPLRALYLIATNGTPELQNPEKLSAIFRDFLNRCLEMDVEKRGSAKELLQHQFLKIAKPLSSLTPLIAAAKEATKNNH
UniProt P60953: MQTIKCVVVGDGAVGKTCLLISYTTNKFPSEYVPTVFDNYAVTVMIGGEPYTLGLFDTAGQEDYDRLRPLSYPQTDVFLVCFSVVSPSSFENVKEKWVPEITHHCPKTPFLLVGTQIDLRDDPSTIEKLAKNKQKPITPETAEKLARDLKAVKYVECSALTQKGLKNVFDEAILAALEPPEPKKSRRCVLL

Molecular target: p21 activated kinase 1 protein (PAK1) - p21 binding domain (PBD) coated beads (UniProt Q13153)
Assay: pull-down; 20 ug PAK1-PBD coated beads incubated with 300-800 ug lysate of MDA-MB-231 cells (treated with control or CD99 siRNA) on a rotator at 4°C for 1 h; bound CDC42 detected by blotting with anti-CDC42 antibodies; only the target purified

- binding: binds
Substance: GTP-bound CDC42 (from UniProt P60953 1-191)

These are yes or no findings as the source states them, for the method shown. Binding seen in cells or lysates may run through a third protein. Binding can be weak; no strength is given.
